PubChem BioAssay AID2284370 (EPA ToxCast)
The inconclusive results got no clear call from the source; some entries with a clear call stand among them for comparison. Potencies of inconclusive entries are doubtful fits and often do not repeat. Active and inactive are the calls of the source. Rule for the calls: active = hit-call score of the fitted dose curve at least 0.9, where 1 is the maximum; inconclusive = response in the unintended direction; inactive = score below 0.9.

By UniProt entry, the sequences of proteins in these tests, tags left out. Where a name states a change or a piece, a line headed by the entry shows the natural chain unless it says otherwise.
UniProt P10275: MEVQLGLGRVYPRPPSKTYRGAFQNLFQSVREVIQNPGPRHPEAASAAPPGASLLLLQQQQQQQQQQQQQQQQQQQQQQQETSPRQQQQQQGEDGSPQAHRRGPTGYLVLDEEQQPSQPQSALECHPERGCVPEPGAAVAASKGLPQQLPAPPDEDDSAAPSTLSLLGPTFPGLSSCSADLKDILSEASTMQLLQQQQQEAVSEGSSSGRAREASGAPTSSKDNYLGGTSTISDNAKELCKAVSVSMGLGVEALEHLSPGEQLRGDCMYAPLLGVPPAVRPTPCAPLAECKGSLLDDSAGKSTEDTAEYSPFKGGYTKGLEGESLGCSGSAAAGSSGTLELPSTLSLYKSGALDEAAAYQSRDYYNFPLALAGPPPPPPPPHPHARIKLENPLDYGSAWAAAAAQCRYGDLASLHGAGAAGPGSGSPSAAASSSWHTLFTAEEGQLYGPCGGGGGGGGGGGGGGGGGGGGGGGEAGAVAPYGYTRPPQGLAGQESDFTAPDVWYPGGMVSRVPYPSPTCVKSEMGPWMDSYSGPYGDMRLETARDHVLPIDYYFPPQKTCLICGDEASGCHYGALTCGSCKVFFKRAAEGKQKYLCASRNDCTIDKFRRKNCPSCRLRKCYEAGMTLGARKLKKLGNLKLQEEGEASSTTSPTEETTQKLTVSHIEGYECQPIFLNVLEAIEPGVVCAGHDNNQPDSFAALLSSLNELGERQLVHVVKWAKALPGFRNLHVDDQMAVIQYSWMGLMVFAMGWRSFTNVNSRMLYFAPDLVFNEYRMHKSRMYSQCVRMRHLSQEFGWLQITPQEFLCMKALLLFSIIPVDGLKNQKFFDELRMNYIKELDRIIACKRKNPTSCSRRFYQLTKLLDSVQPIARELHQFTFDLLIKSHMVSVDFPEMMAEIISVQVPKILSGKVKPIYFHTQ

Biological target: human Androgen Receptor (AR), AR (gene 367) (UniProt P10275)
Experiment: ATG_hAR_EcoTox2: Attagene TRANS-FACTORIAL EcoTox-2 HepG2 Assay for human Androgen Receptor (AR)
Protocol: ATG_EcoTox2 is a cell-based, multiplexed assay created by modifying the existing Attagene TRANS-FACTORIAL system to include a panel of nuclear receptors from some or all the following species: human (Homo sapiens), african clawed frog (Xenopus laevis), rainbow trout (Oncorhynchus mykiss), japanese medaka (Oryzias latipes), and zebrafish (Danio rerio). The ECOTOX2-FACTORIAL format uses HepG2, a human liver cell line, with measurements taken at 24 hours after chemical dosing in a 24-well plate. ATG_hAR_EcoTox2 is one of 29 assay components calculated in the ATG_EcoTox2 assay. It is designed to make measurements of mRNA induction, a form of inducible reporter, as detected with fluorescence intensity signals by Reverse transcription polymerase chain reaction (RT-PCR) and Capillary electrophoresis technology.The assay endpoint ATG_hAR_EcoTox2 was analyzed in the positive analysis fitting direction relative to DMSO as the negative control and baseline of activity. Using a type of inducible reporter, measures of mRNA for gain-of-signal activity can be used to understand the reporter gene at the transcription factor-level as they relate to the gene AR. Furthermore, this assay endpoint can be referred to as a primary readout, because this assay has produced multiple assay endpoints where this one serves a reporter gene function. To generalize the intended target to other relatable targets, this assay endpoint is annotated to the nuclear receptor intended target family, where the subfamily is steroidal.
Human liver HepG2 cells are transiently transfected with multiple reporter transcription units (MRTUs) in 6-well plates using FuGene 6 reagent (Roche; 3 ml FuGene/1 mg DNA). The MRTU constructs are regulated by a cis-regulating element (promoter). Each RTU expresses a GAL4-UAS that regulates the transcription of a nearby target reporter gene sequence. A major difference between the CIS and TRANS system is that in CIS activities of endogenous TFs are measured, whereas the TRANS assay evaluates changes in activities of exogenous, chimeric NR-Gal4 proteins. […] At the end of 24 hour incubation, total RNA was isolated using TriZol reagent (Invitrogen). The isolated RNA is then reverse-transcribed using oligo(dT) primer and Mo-MLV reverse transcriptase (Invitrogen) with DNAse I (Ambion) treatment for 30 min. The one-tenth of the produced cDNA was amplified by PCR using Taq DNA polymerase (Invitrogen) and two reporter sequence-specific primers. The PCR products were fluorescently labeled by primer extension with 6-arboxyfluorescein (6-FAM) 5'-labeled reporter sequence-specific primer (2 min at 95 C, 20 s at 68 C and 10 min at 72 C) and these products were digested with 5U of HpaI (New England Biolabs) for 2h at 37 C. The fragments were purified using Qiaquick PCR columns (Qiagen), analyzed on an ABI 3130xL genetic analyzer (Applied Biosystems) with peak positions identified by using a set of X-rhodamine (ROX)-labeled MapMarker1000 molecular weight standards (BioVentures). The raw capillary electrophoresis data was processed using Attagraph software (Attagene).

SMILES	outcome	AC50
CC(C)(Oc1ccc(C2CC2(Cl)Cl)cc1)C(=O)O (stereo unspecified)	inactive	
CC(c1cc2ccccc2s1)N(O)C(N)=O (stereo unspecified)	inactive	
CC(C)OC(=O)C(C)(C)Oc1ccc(C(=O)c2ccc(Cl)cc2)cc1	inactive	
Cc1nc(-c2ccc(C(F)(F)F)cc2)sc1C(=O)NCc1ccc(OC(C)(C)C(=O)O)cc1		inconclusive: 0.0823 µM
Cc1c(C)c2c(c(C)c1O)CCC(C)(COc1ccc(CC3SC(=O)NC3=O)cc1)O2 (stereo unspecified)		inconclusive: 3.3 µM
Cc1cccc(Nc2cc(Cl)nc(SCC(=O)O)n2)c1C		inconclusive: 100 µM
